Results deposited as PubChem BioAssay AID1259405 (NCATS, 2018)
In all, the deposit lists about 50,000 reagents; below is a part drawn at random. About 4,000 of them (8%) were called active. 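Mouse siRNA library applied to hamster cells; one well for each siRNA.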 Reagents against one gene are numbered here.

Aim: 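Knock-downs that lift recombinant protein yield in hamster ovary cells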 (primary screen)
Cells: Chinese hamster CHO-K1 ovary cells with stable secreted eGFP expression
Knock-down reagent: single siRNA against mouse genes, 0.8 pmol siRNA per well (2 µl of 400 nM stock)
Timing: 3 days
Detection: 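Percent of the per-plate non-targeting control median for intracellular GFP per well by laser scanning cytometry and for cell viability by ATP luminescence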
Reading the numbers: GFP, % of control: higher = more GFP per well, higher productivity; viability (ATP), % of control: higher = more viable cells (more ATP)
Rule for the call: 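a knock-down is called active if GFP reaches 120% or more of non-targeting control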

target,reagent,"GFP, % of control","viability (ATP), % of control",call
Adora2b,1,79.9,71.4,inactive
Adora2b,2,74.9,78.1,inactive
Adora2b,3,69.4,64.6,inactive
Lhfpl1,1,48.7,64.5,inactive
Lhfpl1,2,73.7,62.2,inactive
Lhfpl1,3,59,68.9,inactive
Il18r1,1,126,107,active
Il18r1,2,64.3,81.8,inactive
Il18r1,3,66.5,80.6,inactive
Nans,1,100,69.4,inactive
Nans,2,66.5,63,inactive
Nans,3,52.9,39.2,inactive
Sec23a,1,167,68.2,active
Sec23a,2,92,83,inactive
Sec23a,3,35.8,45.1,inactive
Zfp59,1,50.8,96.4,inactive
Zfp59,2,78.1,83.5,inactive
Zfp59,3,57.1,86.1,inactive
Adam4,1,92.3,90.2,inactive
Adam4,2,45.6,61.5,inactive
Adam4,3,65.7,81.1,inactive
Kctd7,1,86.8,82.4,inactive
Kctd7,2,162,95.1,active
Kctd7,3,35.4,71.9,inactive
Lrfn1,1,149,137,active
Lrfn1,2,119,65.4,inactive
Lrfn1,3,106,78.8,inactive
Scd1,1,87.8,69.3,inactive
Scd1,2,76.1,70.6,inactive
Scd1,3,129,76,active
Ptpru,1,80.2,78.3,inactive
Ptpru,2,60.8,71.4,inactive
Ptpru,3,111,94.2,inactive

Reprinted from the listing for reference:
target,reagent,"GFP, % of control","viability (ATP), % of control",call
Lrfn1,3,106,78.8,inactive
Scd1,1,87.8,69.3,inactive
Scd1,2,76.1,70.6,inactive

Additional results follow.
target,reagent,"GFP, % of control","viability (ATP), % of control",call
BC043934,1,53.6,57.7,inactive
BC043934,2,90.5,83.7,inactive
BC043934,3,176,131,active
Pabpc5,1,101,117,inactive
Pabpc5,2,86,74.7,inactive
Nnt,1,106,107,inactive
Nnt,2,78.5,77.3,inactive
Nnt,3,61.5,89.8,inactive
Smpd3,1,59.7,54.4,inactive
Smpd3,2,82,79.6,inactive
Lsm5,1,64.9,61.9,inactive
Lsm5,2,87.3,70.6,inactive
Lsm5,3,91.6,80,inactive
Ces1c,1,74.1,96,inactive
Ces1c,2,61,86.5,inactive
Ces1c,3,27.8,65.7,inactive
Pdcl,1,76.7,117,inactive
Pdcl,2,78.2,96.1,inactive
Rap1gap2,1,108,96.9,inactive
Rap1gap2,2,62.5,93.7,inactive
Rap1gap2,3,68,67,inactive
H2ac1,1,40.2,75.3,inactive
H2ac1,2,81,105,inactive
H2ac1,3,53.3,51.5,inactive
